Publication PMC11098506
No constants are given. Whether binding was seen depends on the method and setting. For some of these results: In cells and extracts the contact can be indirect. Some binding calls cover weakened binding; strength is not graded here. For some of these results: Where a sequence is shown, tags or fusion partners need not be part of it.

Tests used:
[1] = target: BAK (endogenous, MEFs) (mouse (endogenous in MEFs)) (UniProt O08734); assay: native gel or EMSA; BN-PAGE of heavy membrane fractions of Vdac2-/- MEFs that express VDAC2 variants, solubilised with 1% digitonin after treatment with 10 nM tBID
[2] = target: T1, VDAC2^A172C (single point mutant, HA-tagged) (mouse) (UniProt Q60930); assay: as above
T1 sequence: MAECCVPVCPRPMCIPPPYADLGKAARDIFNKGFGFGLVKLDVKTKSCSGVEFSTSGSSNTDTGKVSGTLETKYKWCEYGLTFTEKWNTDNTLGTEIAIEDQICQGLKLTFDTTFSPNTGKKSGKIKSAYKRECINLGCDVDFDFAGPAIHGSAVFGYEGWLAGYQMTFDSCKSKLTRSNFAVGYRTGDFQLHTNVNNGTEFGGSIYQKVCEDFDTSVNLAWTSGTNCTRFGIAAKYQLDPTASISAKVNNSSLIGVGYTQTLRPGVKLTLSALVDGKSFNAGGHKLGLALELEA

[3] = target: T2, wild-type VDAC2 (HA-VDAC2) (mouse) (UniProt Q60930); assay: as above
T2 sequence: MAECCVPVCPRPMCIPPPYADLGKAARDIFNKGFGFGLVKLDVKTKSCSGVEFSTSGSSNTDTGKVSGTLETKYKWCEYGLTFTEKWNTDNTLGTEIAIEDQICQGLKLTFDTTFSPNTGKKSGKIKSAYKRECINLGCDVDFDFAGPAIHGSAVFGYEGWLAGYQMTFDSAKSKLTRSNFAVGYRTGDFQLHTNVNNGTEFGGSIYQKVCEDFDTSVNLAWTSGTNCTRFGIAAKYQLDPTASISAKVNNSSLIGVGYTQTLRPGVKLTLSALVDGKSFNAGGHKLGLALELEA

HA-VDAC2^A172L (mouse) [4] = target: T3, HA-VDAC2^A172L (mouse) (UniProt Q60930); assay: co-IP; immunoprecipitation by the HA tag on VDAC2 from solubilised mitochondria of VDAC2-deficient MEFs that express HA-VDAC2 A172 mutants
T3 sequence: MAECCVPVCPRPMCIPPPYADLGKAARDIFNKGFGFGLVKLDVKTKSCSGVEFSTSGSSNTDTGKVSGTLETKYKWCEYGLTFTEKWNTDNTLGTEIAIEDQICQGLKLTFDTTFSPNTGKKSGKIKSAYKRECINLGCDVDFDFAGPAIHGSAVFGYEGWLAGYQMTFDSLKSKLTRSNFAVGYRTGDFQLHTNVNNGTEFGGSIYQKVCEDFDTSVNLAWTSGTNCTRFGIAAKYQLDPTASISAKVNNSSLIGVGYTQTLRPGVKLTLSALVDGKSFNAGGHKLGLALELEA

[5] = target: T1, VDAC2^A172C (single point mutant, HA-tagged) (mouse); assay: as above
HA-VDAC2^A172I (mouse) [6] = target: T4, HA-VDAC2^A172I (mouse) (UniProt Q60930); assay: as above
T4 sequence: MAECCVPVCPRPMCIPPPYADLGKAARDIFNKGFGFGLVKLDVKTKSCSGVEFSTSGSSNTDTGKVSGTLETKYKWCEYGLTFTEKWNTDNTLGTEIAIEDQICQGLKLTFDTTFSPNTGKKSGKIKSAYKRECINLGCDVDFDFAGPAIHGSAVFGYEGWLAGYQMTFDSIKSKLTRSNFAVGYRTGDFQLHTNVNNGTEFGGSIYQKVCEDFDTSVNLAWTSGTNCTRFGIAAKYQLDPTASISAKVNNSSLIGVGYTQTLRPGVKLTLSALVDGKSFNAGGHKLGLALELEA

HA-VDAC2^A172L (mouse) [7] = target: T3, HA-VDAC2^A172L (mouse); assay: native gel or EMSA; BN-PAGE of digitonin-solubilised heavy membrane fractions of MEFs that express VDAC2 variants; immunoblot
[8] = target: T1, VDAC2^A172C (single point mutant, HA-tagged) (mouse); assay: as above
HA-VDAC2^A172I (mouse) [9] = target: T4, HA-VDAC2^A172I (mouse); assay: as above
[10] = target: T2, wild-type VDAC2 (HA-VDAC2) (mouse); assay: as above

binding [1]: binds | binding [2]: binds | binding [3]: binds | binding (HA-VDAC2^A172L (mouse) [4]): binds | binding [5]: binds | binding (HA-VDAC2^A172I (mouse) [6]): binds | binding (HA-VDAC2^A172L (mouse) [7]): binds | binding [8]: binds | binding (HA-VDAC2^A172I (mouse) [9]): binds | binding [10]: binds
B1: BAK (endogenous, MEFs) (protein, UniProt O08734 1-209)
chain: MASGQGPGPPKVGCDESPSPSEQQVAQDTEEVFRSYVFYLHQQEQETQGAAAPANPEMDNLPLEPNSILGQVGRQLALIGDDINRRYDTEFQNLLEQLQPTAGNAYELFTKIASSLFKSGISWGRVVALLGFGYRLALYVYQRGLTGFLGQVTCFLADIILHHYIARWIAQRGGWVAALNFRRDPILTVMVIFGVVLLGQFVVHRFFRS
